# For at least one entry, the source does not settle the construct or the ends of the probe.
# Chains of the proteins cited; added tags and fusions are not shown. A line that says so, or that is headed by a name, gives the form on record, which may keep a tag or linker.
# VEGF (vascular endothelial growth factor) (Homo sapiens), one chain, as listed by the source: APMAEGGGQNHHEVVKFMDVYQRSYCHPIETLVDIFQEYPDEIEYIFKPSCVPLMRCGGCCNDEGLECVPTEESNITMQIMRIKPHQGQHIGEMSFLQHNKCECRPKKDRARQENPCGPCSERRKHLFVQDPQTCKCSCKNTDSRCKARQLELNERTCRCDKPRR
# Test system: VEGF (vascular endothelial growth factor) (Homo sapiens)
# Assay: binding assay
# Conditions: 2'-NH2 pyrimidines; CITED Jellinek et al. 1994 Biochemistry 33:10450; SELEX-derived VEGF oligonucleotide, identity with SEQ 1 not explicit; purified recombinant protein; protein details: R&D Systems recombinant human VEGF; label: 3'-biotin
sequence,measurement,value
ACCCUGAUGGUAGACGCCGGG [VEGF-NeXamer],Kd,10 nM
